Measured values as given in PMC12504744.
Results are given in words; binding and its absence hold for the method and conditions named. In cells and extracts the contact can be indirect. Some binding calls cover weakened binding; strength is not graded here. Values belong to the substance of their own block, whether it stands above or below them.

Protein sequences, listed by entry. Tags and fused reporters are not part of them. Lines headed by an entry give the natural chain unless they say otherwise; changes in a name come on top. Residues count along the entry.
UniProt O94953: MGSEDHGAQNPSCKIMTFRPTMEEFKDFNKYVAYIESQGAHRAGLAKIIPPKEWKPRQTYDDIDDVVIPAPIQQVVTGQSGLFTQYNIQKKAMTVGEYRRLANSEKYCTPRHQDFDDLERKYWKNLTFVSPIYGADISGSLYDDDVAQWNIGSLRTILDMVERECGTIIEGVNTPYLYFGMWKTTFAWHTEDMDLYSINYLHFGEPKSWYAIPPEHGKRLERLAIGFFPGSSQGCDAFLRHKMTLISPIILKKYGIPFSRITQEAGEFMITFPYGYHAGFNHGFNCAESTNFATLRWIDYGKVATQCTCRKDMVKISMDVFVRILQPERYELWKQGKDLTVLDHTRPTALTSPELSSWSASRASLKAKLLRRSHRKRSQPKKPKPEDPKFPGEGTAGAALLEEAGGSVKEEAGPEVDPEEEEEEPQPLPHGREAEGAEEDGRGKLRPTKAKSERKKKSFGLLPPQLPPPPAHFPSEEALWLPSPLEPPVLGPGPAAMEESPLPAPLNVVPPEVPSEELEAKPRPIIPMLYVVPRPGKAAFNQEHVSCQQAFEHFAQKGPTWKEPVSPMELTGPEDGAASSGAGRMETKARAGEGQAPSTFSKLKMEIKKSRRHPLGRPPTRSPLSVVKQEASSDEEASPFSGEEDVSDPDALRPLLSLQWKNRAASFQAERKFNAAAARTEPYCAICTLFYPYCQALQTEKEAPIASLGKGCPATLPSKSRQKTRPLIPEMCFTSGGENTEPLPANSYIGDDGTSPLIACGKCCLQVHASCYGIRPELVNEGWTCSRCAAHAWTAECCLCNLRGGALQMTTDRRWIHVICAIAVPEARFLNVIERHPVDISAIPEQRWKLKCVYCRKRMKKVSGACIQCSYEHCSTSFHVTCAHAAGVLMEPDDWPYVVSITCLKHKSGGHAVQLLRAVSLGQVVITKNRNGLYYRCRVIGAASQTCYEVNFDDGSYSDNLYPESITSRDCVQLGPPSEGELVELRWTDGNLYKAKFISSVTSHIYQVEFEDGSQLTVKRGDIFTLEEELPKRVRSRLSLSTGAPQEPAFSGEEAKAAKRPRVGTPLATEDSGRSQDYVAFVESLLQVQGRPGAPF
UniProt P19785: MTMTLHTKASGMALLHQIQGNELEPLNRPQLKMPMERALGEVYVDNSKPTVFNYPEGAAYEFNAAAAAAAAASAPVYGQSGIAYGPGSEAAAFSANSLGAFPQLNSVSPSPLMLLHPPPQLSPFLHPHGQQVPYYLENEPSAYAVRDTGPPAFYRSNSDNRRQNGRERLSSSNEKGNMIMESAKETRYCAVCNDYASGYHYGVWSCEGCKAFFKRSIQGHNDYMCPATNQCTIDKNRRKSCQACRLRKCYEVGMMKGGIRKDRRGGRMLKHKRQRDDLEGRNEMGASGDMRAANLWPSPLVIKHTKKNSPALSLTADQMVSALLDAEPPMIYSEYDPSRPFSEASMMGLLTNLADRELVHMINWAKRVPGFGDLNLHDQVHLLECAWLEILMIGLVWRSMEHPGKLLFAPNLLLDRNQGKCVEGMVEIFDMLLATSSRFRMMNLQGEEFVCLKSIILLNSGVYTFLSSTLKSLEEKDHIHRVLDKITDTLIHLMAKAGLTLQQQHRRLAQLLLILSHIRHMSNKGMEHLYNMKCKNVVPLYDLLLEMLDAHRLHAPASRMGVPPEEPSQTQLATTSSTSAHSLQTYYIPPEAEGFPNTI
UniProt P03372: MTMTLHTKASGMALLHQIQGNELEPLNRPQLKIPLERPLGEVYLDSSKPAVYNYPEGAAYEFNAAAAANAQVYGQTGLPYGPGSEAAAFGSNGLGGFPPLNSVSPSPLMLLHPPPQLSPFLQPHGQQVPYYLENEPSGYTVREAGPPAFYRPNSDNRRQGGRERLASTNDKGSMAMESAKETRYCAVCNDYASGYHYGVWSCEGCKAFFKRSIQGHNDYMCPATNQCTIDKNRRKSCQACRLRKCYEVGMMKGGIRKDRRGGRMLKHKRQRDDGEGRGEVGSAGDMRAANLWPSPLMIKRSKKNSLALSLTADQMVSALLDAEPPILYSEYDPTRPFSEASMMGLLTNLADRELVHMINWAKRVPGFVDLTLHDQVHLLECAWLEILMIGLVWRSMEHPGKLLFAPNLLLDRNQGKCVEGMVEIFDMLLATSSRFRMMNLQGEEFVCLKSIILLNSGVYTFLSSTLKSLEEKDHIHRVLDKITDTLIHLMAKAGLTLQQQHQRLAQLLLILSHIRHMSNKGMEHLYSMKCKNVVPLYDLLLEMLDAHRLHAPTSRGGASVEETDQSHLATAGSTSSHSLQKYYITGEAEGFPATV
GST-ERαAF1 (GST-ERα 29-180aa): residues 29-180 of P03372
GST-ERαAF2 (GST-ERα 282-595aa): residues 282-595 of P03372
UniProt Q15022: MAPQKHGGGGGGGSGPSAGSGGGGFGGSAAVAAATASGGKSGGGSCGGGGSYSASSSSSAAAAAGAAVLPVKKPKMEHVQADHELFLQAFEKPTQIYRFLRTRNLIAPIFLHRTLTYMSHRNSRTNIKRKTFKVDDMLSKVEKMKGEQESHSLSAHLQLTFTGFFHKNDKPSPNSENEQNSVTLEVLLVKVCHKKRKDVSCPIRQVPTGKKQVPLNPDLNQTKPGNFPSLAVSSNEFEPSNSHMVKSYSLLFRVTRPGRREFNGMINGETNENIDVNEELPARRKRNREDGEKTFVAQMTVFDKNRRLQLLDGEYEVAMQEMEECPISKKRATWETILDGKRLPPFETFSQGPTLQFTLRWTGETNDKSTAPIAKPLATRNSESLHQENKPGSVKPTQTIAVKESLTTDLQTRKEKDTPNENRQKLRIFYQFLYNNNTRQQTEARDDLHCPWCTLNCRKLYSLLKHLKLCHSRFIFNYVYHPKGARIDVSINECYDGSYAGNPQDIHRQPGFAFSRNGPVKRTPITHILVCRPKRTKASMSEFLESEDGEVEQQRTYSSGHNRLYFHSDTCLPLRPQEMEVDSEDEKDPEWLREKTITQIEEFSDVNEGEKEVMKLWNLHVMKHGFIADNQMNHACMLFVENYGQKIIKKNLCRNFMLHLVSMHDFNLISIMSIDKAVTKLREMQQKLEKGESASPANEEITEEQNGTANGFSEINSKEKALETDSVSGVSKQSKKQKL
UniProt Q61188: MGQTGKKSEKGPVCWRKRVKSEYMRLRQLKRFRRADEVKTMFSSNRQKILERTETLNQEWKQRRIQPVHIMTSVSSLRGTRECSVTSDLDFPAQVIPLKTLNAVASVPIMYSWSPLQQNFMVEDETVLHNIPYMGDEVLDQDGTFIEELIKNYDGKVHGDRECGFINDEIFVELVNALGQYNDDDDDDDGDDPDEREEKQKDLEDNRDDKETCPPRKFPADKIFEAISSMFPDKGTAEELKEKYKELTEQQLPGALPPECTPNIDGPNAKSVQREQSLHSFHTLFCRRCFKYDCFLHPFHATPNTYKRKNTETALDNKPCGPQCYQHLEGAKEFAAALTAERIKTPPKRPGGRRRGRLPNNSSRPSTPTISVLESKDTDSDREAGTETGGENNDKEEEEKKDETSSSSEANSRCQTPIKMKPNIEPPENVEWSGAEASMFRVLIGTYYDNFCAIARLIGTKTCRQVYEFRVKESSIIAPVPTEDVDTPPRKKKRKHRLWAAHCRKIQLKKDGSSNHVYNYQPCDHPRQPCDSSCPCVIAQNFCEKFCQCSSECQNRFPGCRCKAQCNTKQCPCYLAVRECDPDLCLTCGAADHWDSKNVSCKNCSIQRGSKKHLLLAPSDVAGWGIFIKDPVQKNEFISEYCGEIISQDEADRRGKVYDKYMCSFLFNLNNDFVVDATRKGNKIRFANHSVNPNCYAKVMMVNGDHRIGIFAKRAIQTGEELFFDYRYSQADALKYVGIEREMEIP
UniProt Q80U70: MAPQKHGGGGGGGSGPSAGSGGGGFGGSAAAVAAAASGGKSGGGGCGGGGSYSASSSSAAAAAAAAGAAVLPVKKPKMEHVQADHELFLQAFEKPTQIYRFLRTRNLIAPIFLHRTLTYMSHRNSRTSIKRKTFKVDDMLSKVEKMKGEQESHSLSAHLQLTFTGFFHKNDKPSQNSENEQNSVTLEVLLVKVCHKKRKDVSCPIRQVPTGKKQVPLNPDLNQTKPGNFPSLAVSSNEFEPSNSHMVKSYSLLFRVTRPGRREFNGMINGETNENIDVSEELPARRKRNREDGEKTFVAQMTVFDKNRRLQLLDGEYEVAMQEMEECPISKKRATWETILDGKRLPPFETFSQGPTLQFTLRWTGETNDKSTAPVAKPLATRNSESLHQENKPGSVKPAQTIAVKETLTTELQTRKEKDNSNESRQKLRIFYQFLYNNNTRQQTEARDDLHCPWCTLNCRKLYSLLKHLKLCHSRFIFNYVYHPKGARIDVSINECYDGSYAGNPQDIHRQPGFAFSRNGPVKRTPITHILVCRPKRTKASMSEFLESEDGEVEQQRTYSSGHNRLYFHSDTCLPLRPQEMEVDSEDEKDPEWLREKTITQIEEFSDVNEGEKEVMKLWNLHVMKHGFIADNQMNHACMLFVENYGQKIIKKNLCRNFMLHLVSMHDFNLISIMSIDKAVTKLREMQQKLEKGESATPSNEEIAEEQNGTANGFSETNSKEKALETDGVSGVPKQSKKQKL

Experiments:
[1] = target: HA-KDM4B expressed in HASMCs (UniProt O94953); assay: co-IP; HASMCs co-transfected with PcDNA3.1/HA-KDM4B and ERα plasmids, treated with or without estrogen; whole-cell extracts immunoprecipitated with anti-HA or IgG two days after transfection
[2] = target: HA-KDM4B expressed in HEK-293 cells (UniProt O94953); assay: co-IP; HEK-293 cells co-transfected with PcDNA3.1/HA-KDM4B and ERα plasmids, treated with or without estrogen (E2, 100 nM); whole-cell extracts immunoprecipitated with anti-HA or IgG two days after transfection
[3] = target: ERα, endogenous in MOVAS cells (mouse (endogenous in MOVAS)) (UniProt P19785); assay: co-IP; endogenous proteins in MOVAS cell whole-cell lysate, Protein G beads, immunoblotting
[4] = target: GST-ERαAF2 (GST-ERα 282-595aa) (UniProt P03372); assay: pull-down; GST-ERα fusion proteins on GST-sepharose beads incubated overnight at 4 °C with HA-KDM4B (HEK-293T lysate by the legend, in vitro translated by the methods); washed 4 times with binding buffer (20 mM Tris pH 7.5, 50 mM NaCl, 10% glycerol, 1% Nonidet P-40); western blotting; only the target purified
[5] = target: GST-ERαAF1 (GST-ERα 29-180aa) (UniProt P03372); assay: as above
[6] = target: ERα, endogenous in HASMCs (human (endogenous in HASMCs)) (UniProt P03372); assay: co-IP; endogenous proteins in HASMC whole-cell lysate, Protein G beads, reciprocal co-IP and immunoblotting; also in HASMCs harboring control siRNA or siKDM4B with anti-ERα and IgG
[7] = target: KDM4B, endogenous in HASMCs (human (endogenous in HASMCs)) (UniProt O94953); assay: as above

binding [2]: binds
Substance: ERα (estrogen receptor α) expressed from plasmid in HEK-293 cells (from UniProt P03372 1-595)

binding [4]: binds
binding [5]: binds
Substance: HA-KDM4B (histone lysine demethylase 4B), as used in the GST pull-down (from UniProt O94953 1-1096)

binding [6]: binds
binding [7]: binds
Substance: Suppressor of Zeste 12 (SUZ12), endogenous in HASMCs (from UniProt Q15022 1-739)

Second part, the substance before the results:

Substance: ERα (estrogen receptor α) expressed from plasmid in HASMCs (from UniProt P03372 1-595)
binding [1]: binds

Substance: Enhancer of Zeste homolog 2 (EZH2), endogenous in MOVAS cells (from UniProt Q61188 1-746)
binding [3]: binds

Substance: KDM4B, endogenous in HASMCs (from UniProt O94953 1-1096)
binding [6]: binds

Substance: Suppressor of Zeste 12 (SUZ12), endogenous in MOVAS cells (from UniProt Q80U70 1-741)
binding [3]: binds
